# According to paper PMC12548414:
# Screen size: about 1,600 compounds; about 20 (1%) showed an effect of 50% or more. Some of the results follow.
# Tested on: T1, E. coli pLC1021 (luc-trpAt trans-translation reporter)
# T1 construct: pLC1021 luc-trpAt reporter strain
# Parameters: species or system Escherichia coli pLC1021; luc-trpAt non-stop luciferase reporter; luminescence rises when trans-translation is inhibited; normalized to KKL-35 and DMSO
# Conditions: reporter signal, KKL-35 = 100%; rise means trans-translation inhibition; 2 h, 20 µM
# Procedure, shortened: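 Cells carrying the non-stop luc-trpAt reporter were exposed to 20 µM compound for 2 h at room temperature, then Bright-Glo was added and luminescence read at 560 nm after 10 min. Signals were normalised per plate to DMSO and 20 µM KKL-35 wells. Hits: activity one SD above the median; ≥2 biological repeats averaged.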
row,SMILES,% activation
1,COc1ccc(-c2nnc(SCC(=O)NCCc3ccccc3)o2)cc1 [KKL-0428],4%
2,COC(=O)COc1ccc(NC(=O)c2ccccc2I)cc1 [KKL-1569],0%
3,C=CCc1cc(C)ccc1OCCCCn1ccnc1 [KKL-1325],1%
4,CC(=O)Nc1nc2ccccc2n1Cc1ccccc1 [KKL-0379],0%
5,Cc1cc(C)n(-c2nc(NC(C)C)nc(NC(C)C)n2)n1 [KKL-1638],0%
6,Cc1cc(C(=O)CCl)c(C)n1Cc1ccco1 [KKL-1654],0%
7,Clc1ccc(OCCCCn2ccnc2)c(Br)c1 [KKL-1322],0%
8,Cc1ccc(C(=O)NCCC2=CCCCC2)cc1I [KKL-1410],2%
9,Cc1ccc(-n2cc(CNCCc3ccccn3)c(-c3cccc(C)c3)n2)cc1 [KKL-1177],0%
10,CCOC(=O)CSc1nnc2c3sc4nc(N5CCOCC5)c5c(c4c3ncn12)CC(C)(C)OC5 [KKL-1344],0%
11,COC(=O)COc1ccc(NC(=O)COc2ccc(C)cc2C)cc1 [KKL-1458],4%
12,Cc1ccc(NC(=O)C(Cl)Cl)cc1[N+](=O)[O-] [KKL-1373],4%
13,COc1ccc(NC(=O)c2c(NC(=O)c3ccc([N+](=O)[O-])o3)sc3c2CCC3)cc1 [KKL-1310],0%
14,CSCCC(=O)NC1CCCc2c1cnn2-c1ccc(C(C)(C)C)cc1 (stereo not shown) [KKL-1164],2%
15,Cc1cc(Nc2ccccc2)n(-c2nc3ccccc3[nH]2)n1 [KKL-0835],21%
16,Cc1ccc(C2(O)CCN(CCNC(=O)c3oc4ccccc4c3C)CC2)cc1 [KKL-0340],1%
17,Cc1cc2c(cc1C)C(O)CC1(CCN(CC(O)c3ccc4ccccc4c3)CC1)O2 (stereo not shown) [KKL-0674],0%
18,Cc1cccc(Cn2ccc(NC(=O)c3ccc4c(c3)OCO4)n2)c1 [KKL-1673],3%
19,O=C(Nc1nc(-c2ccccn2)cs1)c1ncc(Cl)c(Cl)c1Cl [KKL-0390],10%
20,Nc1nnc(Sc2ccc([N+](=O)[O-])c3ncccc23)s1 [KKL-1399],0%
21,COc1ccccc1C1(O)CCN(Cc2[nH]c3ccc(C)cc3c2C)CC1 [KKL-0707],7%
22,N#Cc1ncn(-c2ccc3nnc(C(F)(F)F)n3n2)n1 [KKL-1886],0%

row,SMILES,% activation
1,Cc1c(OC(=O)c2ccccc2Cl)ccc2c1CCCC2 [KKL-1558],0%
2,Cc1ccc2nc(-c3ccccn3)c(Nc3ccccc3C)n2c1 [KKL-1511],0%
3,NC(=Nc1nc(-c2ccccn2)cc2ccccc12)c1cccc(Cl)c1 [KKL-1764],0%
4,O=C(Nc1ccc(OC(F)(F)C(F)F)cc1)Nc1cccc(Cl)c1 [KKL-1323],0%
5,CCOC(=O)C1CCCN(c2ccc([N+](=O)[O-])c3nonc23)C1 (stereo not shown) [KKL-1513],0%
6,OC(CN1CCC2(CC1)CC(O)c1cc(Cl)ccc1O2)c1ccc2ccccc2c1 (stereo not shown) [KKL-0552],0%
7,COc1ccc2cc(C(=O)Nc3ccc(C4CCN(C)CC4)cc3)sc2c1 [KKL-1818],1%
8,Nc1cccnc1Nc1ccc(Cl)cc1 [KKL-1858],0%
9,O=C(CNC(=O)/C(=C\c1ccc(Br)cc1)NC(=O)c1ccccc1)OCc1ccccc1 [KKL-0366],2%
10,COC(=O)CSc1nnc(-c2ccc(OC)cc2OC)o1 [KKL-1650],2%
11,Brc1cncc(-c2cc(NCCCn3ccnc3)nc(-c3ccccc3)n2)c1 [KKL-1784],0%
12,COC(=O)[C@@H](NC(=O)c1cc(COc2c(F)cccc2F)on1)c1ccccc1 [KKL-0496],8%
13,O=[N+]([O-])c1c(O)nc(/C=C/c2cccc3ccccc23)nc1O [KKL-0765],0%
14,Cc1ccc(-n2cc(CNCCc3nc(O)c4ccccc4n3)c(-c3cccc(C)c3)n2)cc1 [KKL-1180],0%
15,O=C(Nc1ccc(N2CCN(Cc3ccccc3F)CC2)cc1)c1ccc([N+](=O)[O-])o1 [KKL-1302],0%
16,O=C(Oc1ccccc1)c1ccc(COC(=O)c2ccco2)cc1 [KKL-1585],0%
17,CSc1ncc(CNC2CCCc3c2cnn3-c2ccc(C(C)(C)C)cc2)cn1 (stereo not shown) [KKL-0317],0%
18,Cc1[nH]c2ccccc2c1/C=C1\SC(=N)N(c2nccs2)C1=O [KKL-1143],6%
19,O=C1/C(=C/c2ccccc2[N+](=O)[O-])COc2ccccc21 [KKL-0830],0%
20,COc1cc([N+](=O)[O-])ccc1NC(=O)c1cc(Cl)ccc1O [KKL-1442],0%
21,CCN1C(=O)c2cccc3cc([N+](=O)[O-])cc(c23)C1=O [KKL-1374],0%
22,[O-][n+]1onc2c3cc(-c4ccccc4)nnc3ccc21 [KKL-0875],8%

# Of the compounds above, 4 contain fluorine.
row,SMILES,% activation
22,N#Cc1ncn(-c2ccc3nnc(C(F)(F)F)n3n2)n1 [KKL-1886],0%
4,O=C(Nc1ccc(OC(F)(F)C(F)F)cc1)Nc1cccc(Cl)c1 [KKL-1323],0%
12,COC(=O)[C@@H](NC(=O)c1cc(COc2c(F)cccc2F)on1)c1ccccc1 [KKL-0496],8%
15,O=C(Nc1ccc(N2CCN(Cc3ccccc3F)CC2)cc1)c1ccc([N+](=O)[O-])o1 [KKL-1302],0%

# (list continues)

row,SMILES,% activation
1,CC(C)Oc1ccc(-c2nnc(-c3ccc4c(c3)CCNCC4)s2)cc1Cl [KKL-1840],4%
2,COc1ccc2c(c1)CCCN2Cc1ccnc(N2CCCC2)n1 [KKL-0504],4%
3,O=C(O)CCc1nc2ccccc2oc1=O [KKL-1782],0%
4,CSc1ncc(C(=O)Nc2ccc(Oc3ccc4c(c3)OCO4)cc2)cn1 [KKL-0931],7%
5,O=C(CSc1nnc(-c2ccccc2Br)o1)N1CCc2ccccc2C1 [KKL-0388],0%
6,CSCCC(=O)N1CCC(C(=O)Nc2ccc(-c3cccc(C)c3)cc2)CC1 [KKL-1148],1%
7,CN(C)CCCNc1cc(C(C)(C)C)nc2c(-c3ccc(Cl)cc3)cnn12 [KKL-0993],17%
8,Cc1ccc(C(=O)/C=C/c2ccccc2[N+](=O)[O-])cc1 [KKL-0973],0%
9,O=C(Oc1cccc2cccnc12)c1ccccc1 [KKL-0450],3%
10,Cc1ccc2[nH]c(NCc3ccccc3)nc2c1 [KKL-1091],0%
11,CC1CCc2onc(C(=O)NC3CCCc4c3cnn4Cc3ccccc3Cl)c2C1 (stereo not shown) [KKL-0348],0%
12,Cc1nn(-c2ccccc2)c(O)c1N=Nc1nccs1 [KKL-0953],27%
13,CCCc1cc(C(C)=O)ccc1OCCCON1C(=N)N=C(N)NC1(C)C [KKL-1788],0%
14,Cc1cc(NCCCn2ccnc2)n2nc(C)c(-c3ccc(Cl)cc3)c2n1 [KKL-0992],4%
15,COc1ccc(N2CCN(c3nc(NC(C)(C)C)nc(N4CCCCC4)n3)CC2)cc1 [KKL-1088],1%
16,CC1CCc2c(sc3ncn(C(C)C(=O)OCc4ccccc4)c(=O)c23)C1 (stereo not shown) [KKL-0740],7%
17,Cc1ccc(C(=O)Oc2ccc(Cl)c3cccnc23)cc1[N+](=O)[O-] [KKL-1383],0%
18,CCCCCn1c(NCc2ccc(N(C)C)cc2)nc2ccccc21 [KKL-0911],0%
19,C=CCOC(=O)C(C#N)c1nc2ccccc2nc1N1CCN(Cc2ccc3c(c2)OCO3)CC1 (stereo not shown) [KKL-0877],0%
20,COc1ccc(-c2nnc(SCC(=O)OC3CCCCC3)o2)cc1OC [KKL-1653],0%
21,O=C(CN1C(=O)N2CCN=C2c2cnn(-c3ccccc3)c21)N1CCc2ccccc21 [KKL-0709],0%
22,CSc1nc2nc3c(c(O)n2n1)CCCC3 [KKL-1033],0%

row,SMILES,% activation
1,CCOC(=O)CSc1nnc(-c2ccc(OC)cc2OC)o1 [KKL-1666],0%
2,Cc1nn(Cc2ccccc2Cl)c2sc(C(=O)NCc3ccc4c(c3)OCO4)cc12 [KKL-0805],0%
3,O=c1oc2ccc3ccccc3c2cc1-c1nc2ccccc2o1 [KKL-1047],2%
4,COc1ccc(C(C)NC(=O)c2cc(-c3ccccc3OC)[nH]n2)cc1F (stereo not shown) [KKL-0512],0%
5,CSc1ccc(C(=O)C2CCCN(Cc3cc4ccccc4[nH]3)C2)cc1 (stereo not shown) [KKL-0664],0%
6,O=C(Nc1ccc(N2CCN(C(=O)c3ccc(Cl)cc3)CC2)cc1)c1ccc([N+](=O)[O-])o1 [KKL-0356],0%
7,Cc1ccc2nsnc2c1S(=O)(=O)Nc1cccc2cccnc12 [KKL-1328],3%
8,CCCc1cc(NCc2ccccn2)n2nc(C)c(-c3ccccc3)c2n1 [KKL-0892],0%
9,CC(=O)Oc1cccc2ccc(/C=C/c3cccc(Br)c3)nc12 [KKL-0430],14%
10,COCc1nnc(NC(=O)c2nnn(-c3ccccc3F)c2C)s1 [KKL-0547],0%
11,CCOC(=O)CSC1=C(C#N)C(c2ccccc2[N+](=O)[O-])C(C(C)=O)=C(C)N1 (stereo not shown) [KKL-0587],0%
12,COc1ccc(-c2cc(=O)c3cc(OCC(=O)OC(C)C)ccc3o2)cc1 [KKL-1864],2%
13,CSCCC(=O)N1CCC(Oc2ccc(C(=O)NCCc3ccccc3)cc2)CC1 [KKL-0622],4%
14,O=c1oc(-c2ccccc2Br)nc2sc3c(c12)CCCC3 [KKL-0570],0%
15,CN(Cc1ccccc1)CC(O)COc1ccc(CNCc2cc3ccccc3s2)cc1 (stereo not shown) [KKL-0618],0%
16,CCOC(=O)COc1ccc(OCc2ccccc2)cc1 [KKL-0404],1%
17,NC(=O)c1cc(-c2ccsc2)ccc1OCCOc1ccccc1 [KKL-1826],0%
18,Cc1ccc([N+](=O)[O-])cc1NC(=O)Nc1cccc(Cl)c1 [KKL-1362],4%
19,CCOc1ccc(NC(=O)c2c(NC(=O)CNCCN3CCOCC3)sc3c2CCC3)cc1 [KKL-1306],1%
20,O=C(/C=C/c1cccc(C(F)(F)F)c1)Nc1cccc(C(F)(F)F)c1 [KKL-1369],0%
21,O=C(CC(c1ccccc1)c1ccccc1)N1CCN(Cc2ccc3c(c2)OCO3)CC1 [KKL-0442],7%
22,CCOC(=O)COc1ccc2c(=O)c(-c3ccc(OC)cc3)c(C)oc2c1 [KKL-0434],0%
